Measured values published in article PMC9402233.

Protein sequences, listed by entry. Tags and fused reporters are not part of them.
UniProt P38181: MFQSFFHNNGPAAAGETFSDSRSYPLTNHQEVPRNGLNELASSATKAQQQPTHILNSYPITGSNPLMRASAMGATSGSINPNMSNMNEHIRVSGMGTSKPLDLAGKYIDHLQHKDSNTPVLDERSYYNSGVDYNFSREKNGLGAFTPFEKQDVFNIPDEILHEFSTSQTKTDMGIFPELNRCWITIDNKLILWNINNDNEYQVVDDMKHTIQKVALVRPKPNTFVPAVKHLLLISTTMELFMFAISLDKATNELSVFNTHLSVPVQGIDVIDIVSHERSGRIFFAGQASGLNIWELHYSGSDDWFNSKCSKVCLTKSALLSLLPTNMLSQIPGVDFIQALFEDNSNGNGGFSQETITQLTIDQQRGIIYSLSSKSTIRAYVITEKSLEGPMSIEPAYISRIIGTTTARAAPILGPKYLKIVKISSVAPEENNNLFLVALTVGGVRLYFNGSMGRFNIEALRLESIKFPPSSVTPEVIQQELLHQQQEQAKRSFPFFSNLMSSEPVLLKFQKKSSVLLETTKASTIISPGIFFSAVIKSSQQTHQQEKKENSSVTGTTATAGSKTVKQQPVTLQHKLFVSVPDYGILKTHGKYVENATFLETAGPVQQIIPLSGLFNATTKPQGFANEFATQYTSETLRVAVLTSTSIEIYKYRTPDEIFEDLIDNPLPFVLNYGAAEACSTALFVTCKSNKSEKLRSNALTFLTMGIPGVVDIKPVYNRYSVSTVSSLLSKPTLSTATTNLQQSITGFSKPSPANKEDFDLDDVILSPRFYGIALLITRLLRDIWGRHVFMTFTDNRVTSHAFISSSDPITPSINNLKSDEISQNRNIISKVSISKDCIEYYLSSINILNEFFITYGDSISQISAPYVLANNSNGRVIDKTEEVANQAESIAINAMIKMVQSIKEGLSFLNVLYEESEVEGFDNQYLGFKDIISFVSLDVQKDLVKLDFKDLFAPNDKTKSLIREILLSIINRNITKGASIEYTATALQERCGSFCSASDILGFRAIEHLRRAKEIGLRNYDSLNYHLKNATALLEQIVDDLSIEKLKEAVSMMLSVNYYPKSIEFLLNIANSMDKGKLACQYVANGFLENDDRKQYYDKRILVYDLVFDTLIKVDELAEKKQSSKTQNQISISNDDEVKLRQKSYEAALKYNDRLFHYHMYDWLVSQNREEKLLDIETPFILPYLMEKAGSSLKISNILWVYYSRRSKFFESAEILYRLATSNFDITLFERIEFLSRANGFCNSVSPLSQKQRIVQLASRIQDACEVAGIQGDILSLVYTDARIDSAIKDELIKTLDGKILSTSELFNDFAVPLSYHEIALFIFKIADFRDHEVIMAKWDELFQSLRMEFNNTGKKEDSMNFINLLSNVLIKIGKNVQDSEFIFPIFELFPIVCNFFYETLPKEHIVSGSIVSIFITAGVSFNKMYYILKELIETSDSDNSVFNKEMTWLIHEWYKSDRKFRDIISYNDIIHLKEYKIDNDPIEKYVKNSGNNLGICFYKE
UniProt Q02455: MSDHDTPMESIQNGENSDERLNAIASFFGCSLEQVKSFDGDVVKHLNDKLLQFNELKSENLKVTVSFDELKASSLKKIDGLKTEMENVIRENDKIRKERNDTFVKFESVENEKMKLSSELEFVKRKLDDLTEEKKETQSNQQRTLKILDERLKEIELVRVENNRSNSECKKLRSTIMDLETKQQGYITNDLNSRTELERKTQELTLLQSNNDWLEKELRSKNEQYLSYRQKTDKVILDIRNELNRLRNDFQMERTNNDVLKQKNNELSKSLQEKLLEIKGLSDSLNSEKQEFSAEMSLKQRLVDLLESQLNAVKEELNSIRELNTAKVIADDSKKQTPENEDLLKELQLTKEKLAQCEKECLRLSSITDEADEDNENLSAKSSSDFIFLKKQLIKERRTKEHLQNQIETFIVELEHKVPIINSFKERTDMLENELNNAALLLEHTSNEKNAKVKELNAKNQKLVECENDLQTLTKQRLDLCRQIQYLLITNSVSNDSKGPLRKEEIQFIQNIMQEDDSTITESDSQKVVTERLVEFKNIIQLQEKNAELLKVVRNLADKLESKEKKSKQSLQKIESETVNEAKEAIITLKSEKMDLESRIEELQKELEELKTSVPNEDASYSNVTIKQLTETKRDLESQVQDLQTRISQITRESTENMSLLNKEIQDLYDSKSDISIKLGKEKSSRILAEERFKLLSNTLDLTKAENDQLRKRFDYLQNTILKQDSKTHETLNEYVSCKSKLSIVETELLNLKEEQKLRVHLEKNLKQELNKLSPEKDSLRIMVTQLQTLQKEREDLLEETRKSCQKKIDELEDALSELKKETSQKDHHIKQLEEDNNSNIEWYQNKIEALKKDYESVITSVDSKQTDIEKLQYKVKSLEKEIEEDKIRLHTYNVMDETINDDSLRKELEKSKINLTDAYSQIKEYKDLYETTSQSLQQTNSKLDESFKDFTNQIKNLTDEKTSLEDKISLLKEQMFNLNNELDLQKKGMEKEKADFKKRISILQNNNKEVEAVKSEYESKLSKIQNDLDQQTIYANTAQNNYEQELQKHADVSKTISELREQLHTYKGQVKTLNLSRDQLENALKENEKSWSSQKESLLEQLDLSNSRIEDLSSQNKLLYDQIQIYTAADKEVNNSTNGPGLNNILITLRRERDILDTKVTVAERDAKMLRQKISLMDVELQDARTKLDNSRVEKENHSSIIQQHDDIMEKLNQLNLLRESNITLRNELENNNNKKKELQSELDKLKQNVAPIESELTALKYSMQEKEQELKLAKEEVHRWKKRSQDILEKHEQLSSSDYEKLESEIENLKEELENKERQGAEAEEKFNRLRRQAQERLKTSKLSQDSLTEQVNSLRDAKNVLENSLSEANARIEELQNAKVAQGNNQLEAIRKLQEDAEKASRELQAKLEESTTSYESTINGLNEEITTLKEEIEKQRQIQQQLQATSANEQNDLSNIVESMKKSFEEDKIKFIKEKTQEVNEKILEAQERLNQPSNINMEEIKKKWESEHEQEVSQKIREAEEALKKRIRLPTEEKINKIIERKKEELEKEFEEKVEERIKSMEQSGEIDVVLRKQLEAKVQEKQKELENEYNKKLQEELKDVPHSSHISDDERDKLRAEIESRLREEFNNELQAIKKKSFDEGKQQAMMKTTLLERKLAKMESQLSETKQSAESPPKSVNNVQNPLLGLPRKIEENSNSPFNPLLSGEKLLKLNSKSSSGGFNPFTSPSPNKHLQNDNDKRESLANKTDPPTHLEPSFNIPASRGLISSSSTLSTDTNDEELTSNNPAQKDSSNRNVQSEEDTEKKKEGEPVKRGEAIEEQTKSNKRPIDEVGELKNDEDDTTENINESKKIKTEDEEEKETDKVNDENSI
UniProt P40477: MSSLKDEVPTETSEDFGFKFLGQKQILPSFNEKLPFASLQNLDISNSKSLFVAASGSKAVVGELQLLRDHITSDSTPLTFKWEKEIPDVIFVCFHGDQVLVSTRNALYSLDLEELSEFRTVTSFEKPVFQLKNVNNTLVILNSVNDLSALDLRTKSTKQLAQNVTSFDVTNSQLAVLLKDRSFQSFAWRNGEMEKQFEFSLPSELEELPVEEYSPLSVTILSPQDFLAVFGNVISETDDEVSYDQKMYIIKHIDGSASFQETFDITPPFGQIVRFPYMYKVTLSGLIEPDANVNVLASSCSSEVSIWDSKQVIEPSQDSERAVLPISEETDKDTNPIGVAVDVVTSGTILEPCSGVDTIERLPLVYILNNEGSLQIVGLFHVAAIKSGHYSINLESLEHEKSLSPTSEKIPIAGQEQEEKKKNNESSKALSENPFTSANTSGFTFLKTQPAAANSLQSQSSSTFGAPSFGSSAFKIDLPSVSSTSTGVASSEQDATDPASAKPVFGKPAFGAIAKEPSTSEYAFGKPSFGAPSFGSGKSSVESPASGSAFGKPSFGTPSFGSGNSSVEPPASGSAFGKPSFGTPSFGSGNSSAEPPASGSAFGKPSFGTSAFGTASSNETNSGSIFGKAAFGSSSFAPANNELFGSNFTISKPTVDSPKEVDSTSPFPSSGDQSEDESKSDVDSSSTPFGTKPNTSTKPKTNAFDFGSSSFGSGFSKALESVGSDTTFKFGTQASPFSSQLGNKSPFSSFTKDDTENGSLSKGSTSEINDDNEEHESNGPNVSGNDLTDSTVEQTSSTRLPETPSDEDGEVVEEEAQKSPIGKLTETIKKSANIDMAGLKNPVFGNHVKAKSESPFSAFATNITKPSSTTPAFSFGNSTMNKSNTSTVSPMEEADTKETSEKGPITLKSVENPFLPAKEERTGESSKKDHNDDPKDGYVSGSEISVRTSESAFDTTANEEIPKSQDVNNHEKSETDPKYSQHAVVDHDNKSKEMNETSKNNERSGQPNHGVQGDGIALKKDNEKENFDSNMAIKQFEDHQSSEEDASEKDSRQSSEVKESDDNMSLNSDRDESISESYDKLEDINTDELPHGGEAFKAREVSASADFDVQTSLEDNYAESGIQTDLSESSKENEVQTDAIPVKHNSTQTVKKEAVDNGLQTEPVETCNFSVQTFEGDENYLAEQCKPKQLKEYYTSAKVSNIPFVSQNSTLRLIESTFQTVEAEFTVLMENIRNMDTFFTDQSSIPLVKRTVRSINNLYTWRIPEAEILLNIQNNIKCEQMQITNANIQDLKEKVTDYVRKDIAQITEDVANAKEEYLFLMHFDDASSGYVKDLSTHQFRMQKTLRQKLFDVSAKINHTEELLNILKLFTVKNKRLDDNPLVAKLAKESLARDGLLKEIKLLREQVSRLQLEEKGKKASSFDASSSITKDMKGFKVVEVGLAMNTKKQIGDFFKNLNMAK
UniProt P39685: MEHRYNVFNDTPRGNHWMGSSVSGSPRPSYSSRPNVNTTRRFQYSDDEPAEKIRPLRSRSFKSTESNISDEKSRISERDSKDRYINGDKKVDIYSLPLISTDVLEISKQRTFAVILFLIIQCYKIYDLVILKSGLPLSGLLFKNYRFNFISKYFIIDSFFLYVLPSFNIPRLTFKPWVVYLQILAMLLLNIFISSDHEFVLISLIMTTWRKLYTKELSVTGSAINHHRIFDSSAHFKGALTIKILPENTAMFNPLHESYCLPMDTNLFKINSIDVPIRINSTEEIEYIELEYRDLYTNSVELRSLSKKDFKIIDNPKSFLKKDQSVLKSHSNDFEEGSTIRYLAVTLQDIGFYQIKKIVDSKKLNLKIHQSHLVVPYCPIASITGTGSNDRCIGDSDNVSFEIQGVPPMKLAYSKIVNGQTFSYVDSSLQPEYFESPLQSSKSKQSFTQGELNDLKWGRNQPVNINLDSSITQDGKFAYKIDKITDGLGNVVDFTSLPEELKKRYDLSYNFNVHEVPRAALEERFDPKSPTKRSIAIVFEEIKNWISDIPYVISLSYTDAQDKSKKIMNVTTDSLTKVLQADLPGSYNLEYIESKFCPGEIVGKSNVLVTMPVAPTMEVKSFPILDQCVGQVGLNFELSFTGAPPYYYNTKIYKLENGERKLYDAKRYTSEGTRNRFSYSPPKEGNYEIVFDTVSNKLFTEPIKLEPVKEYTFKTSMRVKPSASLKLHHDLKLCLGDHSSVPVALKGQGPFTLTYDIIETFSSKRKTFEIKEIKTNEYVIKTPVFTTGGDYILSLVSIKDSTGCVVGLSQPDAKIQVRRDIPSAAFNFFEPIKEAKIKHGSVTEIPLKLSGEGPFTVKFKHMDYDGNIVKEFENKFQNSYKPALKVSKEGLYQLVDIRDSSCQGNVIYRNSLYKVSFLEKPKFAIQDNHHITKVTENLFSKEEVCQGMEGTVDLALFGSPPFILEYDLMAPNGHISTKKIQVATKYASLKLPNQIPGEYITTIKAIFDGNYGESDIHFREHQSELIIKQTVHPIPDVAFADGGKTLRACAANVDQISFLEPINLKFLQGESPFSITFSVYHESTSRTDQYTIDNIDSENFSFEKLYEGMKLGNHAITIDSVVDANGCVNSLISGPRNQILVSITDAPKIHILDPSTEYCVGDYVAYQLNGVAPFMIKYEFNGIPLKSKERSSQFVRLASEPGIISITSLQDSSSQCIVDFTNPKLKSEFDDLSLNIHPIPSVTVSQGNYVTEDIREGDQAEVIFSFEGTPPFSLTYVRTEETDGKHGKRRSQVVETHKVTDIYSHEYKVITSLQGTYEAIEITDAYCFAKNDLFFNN

Key:
[1] = biological target: Nup170-S-TEV-ZZ (endogenously tagged Nup170) (S. cerevisiae) (UniProt P38181); test: affinity purification with mass spectrometry; endogenously tagged Nup170-S-TEV-ZZ captured from lysate of Brl1-AID cells on IgG Dynabeads, 30 min at 4°C, same buffers; cells pulse labeled with heavy lysine and treated with auxin (500 µM) or ethanol for 4, 4.5 and 5 hr; DIA MS
[2] = biological target: T1, Brl1-S-TEV-ZZ (endogenously tagged Brl1) (S. cerevisiae) (UniProt P38770); test: affinity purification with mass spectrometry; endogenously tagged Brl1-S-TEV-ZZ captured from yeast lysate on IgG Dynabeads, 30 min at 4°C; 20 mM HEPES pH 7.5, 50 mM KOAc, 20 mM NaCl, 2 mM MgCl2, 1 mM DTT, 10% glycerol, 0.5% Triton X-100, 0.1% Tween-20; unlabeled (label-free) and after pulse labeling with heavy lysine (KARMA; 30, 60, 90 min); DIA MS
T1 sequence: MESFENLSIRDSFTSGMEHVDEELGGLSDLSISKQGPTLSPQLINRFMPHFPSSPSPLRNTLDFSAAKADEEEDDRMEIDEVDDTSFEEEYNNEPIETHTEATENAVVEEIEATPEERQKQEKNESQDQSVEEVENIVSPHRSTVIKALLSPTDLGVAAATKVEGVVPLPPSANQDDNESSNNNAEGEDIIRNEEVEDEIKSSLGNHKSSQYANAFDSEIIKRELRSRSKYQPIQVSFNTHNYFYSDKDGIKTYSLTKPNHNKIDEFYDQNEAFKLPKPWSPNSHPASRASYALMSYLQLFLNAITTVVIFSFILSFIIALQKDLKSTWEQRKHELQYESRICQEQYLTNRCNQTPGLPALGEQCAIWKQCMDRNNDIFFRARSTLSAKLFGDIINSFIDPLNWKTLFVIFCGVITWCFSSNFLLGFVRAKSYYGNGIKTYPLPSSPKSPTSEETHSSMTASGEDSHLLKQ

| Substance | binding [1] | binding [2] |
| --- | --- | --- |
| Mlp1 (from UniProt Q02455 1-1875) | binds |  |
| Mlp2 (from UniProt P40457 1-1679) | binds |  |
| Nup159 (from UniProt P40477 1-1460) |  | binds |
| Pom152 (from UniProt P39685 1-1337) |  | binds |

These are yes or no findings as the source states them, for the method shown. Binding seen in cells or lysates may run through a third protein. These calls come from enrichment with a bait or labelling near it, and not all partners need be listed. For some of these results: Tags and fused reporters may be left off the sequences shown.
